B1: NV-Ngb (protein, UniProt Q9NPG2 1-151)
chain: MERPEPELIRQSWRAVSRSPLEHGTVLFARLFALEPDLLPLFQYNCRQFSSPEDCLSSPEFLDHIRKVMLVIDAAVTNVEDLSSLEEYLASLGRKHRAVGVKLSSFSTVGESLLYMLEKCLGPAFTPATRAAWSQLYGAVVQAMSRGWDGE
B2: CV-Ngb (protein, UniProt Q9NPG2 1-151)
chain: MERPEPELIRQSWRAVSRSPLEHGTVLFARLFALEPDLLPLFQYNCRQFSSPEDCLSSPEFLDHIRKVMLVIDAAVTNVEDLSSLEEYLASLGRKHRAVGVKLSSFSTVGESLLYMLEKCLGPAFTPATRAAWSQLYGAVVQAMSRGWDGE
B3: EGFP-tagged Ngb Δ123–151 (domain or fragment, UniProt Q9NPG2 1-122)
chain: MERPEPELIRQSWRAVSRSPLEHGTVLFARLFALEPDLLPLFQYNCRQFSSPEDCLSSPEFLDHIRKVMLVIDAAVTNVEDLSSLEEYLASLGRKHRAVGVKLSSFSTVGESLLYMLEKCLG
B4: EGFP-tagged Ngb E53Q (pEGFP-N1-Ngb E53Q) (protein, UniProt Q9NPG2 1-151)
chain: MERPEPELIRQSWRAVSRSPLEHGTVLFARLFALEPDLLPLFQYNCRQFSSPQDCLSSPEFLDHIRKVMLVIDAAVTNVEDLSSLEEYLASLGRKHRAVGVKLSSFSTVGESLLYMLEKCLGPAFTPATRAAWSQLYGAVVQAMSRGWDGE
B5: EGFP-tagged Ngb wild type (pEGFP-N1-Ngb WT) (protein, UniProt Q9NPG2 1-151)
chain: MERPEPELIRQSWRAVSRSPLEHGTVLFARLFALEPDLLPLFQYNCRQFSSPEDCLSSPEFLDHIRKVMLVIDAAVTNVEDLSSLEEYLASLGRKHRAVGVKLSSFSTVGESLLYMLEKCLGPAFTPATRAAWSQLYGAVVQAMSRGWDGE
B6: EGFP-tagged Ngb wild type (pEGFP-C1-Ngb WT) (protein, UniProt Q9NPG2 1-151)
chain: MERPEPELIRQSWRAVSRSPLEHGTVLFARLFALEPDLLPLFQYNCRQFSSPEDCLSSPEFLDHIRKVMLVIDAAVTNVEDLSSLEEYLASLGRKHRAVGVKLSSFSTVGESLLYMLEKCLGPAFTPATRAAWSQLYGAVVQAMSRGWDGE
B7: EGFP-tagged Ngb H64L (pEGFP-N1-Ngb H64L) (protein, UniProt Q9NPG2 1-151)
chain: MERPEPELIRQSWRAVSRSPLEHGTVLFARLFALEPDLLPLFQYNCRQFSSPEDCLSSPEFLDLIRKVMLVIDAAVTNVEDLSSLEEYLASLGRKHRAVGVKLSSFSTVGESLLYMLEKCLGPAFTPATRAAWSQLYGAVVQAMSRGWDGE
B8: EGFP-tagged Ngb E118Q (pEGFP-N1-Ngb E118Q) (protein, UniProt Q9NPG2 1-151)
chain: MERPEPELIRQSWRAVSRSPLEHGTVLFARLFALEPDLLPLFQYNCRQFSSPEDCLSSPEFLDHIRKVMLVIDAAVTNVEDLSSLEEYLASLGRKHRAVGVKLSSFSTVGESLLYMLQKCLGPAFTPATRAAWSQLYGAVVQAMSRGWDGE
B9: EGFP-tagged Ngb Δ128–151 (domain or fragment, UniProt Q9NPG2 1-127)
chain: MERPEPELIRQSWRAVSRSPLEHGTVLFARLFALEPDLLPLFQYNCRQFSSPEDCLSSPEFLDHIRKVMLVIDAAVTNVEDLSSLEEYLASLGRKHRAVGVKLSSFSTVGESLLYMLEKCLGPAFTP
B10: EGFP-tagged Ngb Δ1–6 (domain or fragment, UniProt Q9NPG2 7-151)
chain: ELIRQSWRAVSRSPLEHGTVLFARLFALEPDLLPLFQYNCRQFSSPEDCLSSPEFLDHIRKVMLVIDAAVTNVEDLSSLEEYLASLGRKHRAVGVKLSSFSTVGESLLYMLEKCLGPAFTPATRAAWSQLYGAVVQAMSRGWDGE

No constants are given. Whether binding was seen depends on the method and setting. In cells and extracts the contact can be indirect. A result given as binding can be weak or reduced; the word gives no strength. For some of these results: Tags and fused reporters may be left off the sequences shown.

The target in the first assay is CV-p38. The assay is described as follows: split reporter; BiFC in living N2a cells co-transfected 1:1 with NV (Venus 1–157) and CV (Venus 137–238) fusions; Venus signal photographed at 24 h of transfection; normoxia and OGD-1 h/Re-6 h (signal stronger after OGD/Re).
Turning to B1, the binding entry is “binds”.

Another assay deals with NV-p38. The description is as above.
For the molecule B2, the binding result is given as “binds”.

Another assay addresses GST-p38. In words: pull-down; N2a cells co-transfected 1:1 with pDEST27-GST-p38 and pEGFP-Ngb WT, truncates or mutants; OGD-1 h/Re-24 h (mutants also under normoxia); total soluble proteins on glutathione sepharose beads overnight at 4 °C; blots with anti-GFP and anti-GST.
As for B3, the binding entry is listed as “binds”.

Take B4: the binding result was “binds”.

For B5, the binding result is recorded as “binds”.

With B6, the binding entry was “binds”.

In the case of B7, the binding entry was “binds”.

In the case of B8, the binding result is given as “binds”.

With B9, the binding result is recorded as “binds”.

In the case of B10, the binding entry was “binds”.

The record behind these values is paper PMC5833339.
